From the supplement of paper PMC4604168 (melanoma cell lines)
Some of the results follow. Repeats are few or missing, and single values can be far off.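 Cells were imaged in 1,536-well plates, and nuclei stained with an antibody against cleaved PARP were counted against all DNA-stained nuclei to give the apoptosis fraction. Screening doses were chosen to leave most cells alive, and resting and induced cleaved-PARP levels differ strongly between cell lines.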

System: UACC257
Assay: cleaved PARP positive nuclei fraction relative to DMSO control; melanoma cells; higher = more apoptosis
Conditions: library dose: low library concentration; 72 h

Row | Compound | cleaved PARP positive nuclei fraction
1 | Cc1cc(SCc2sc(-c3ccc(C(F)(F)F)c(F)c3)nc2C)ccc1OCC(=O)O + c1cc(-c2cnn3cc(-c4ccc(OCCN5CCCCC5)cc4)cnc23)ccn1 [Dorsomorphin] (first compound 2 µM, partner dose 0.4 µM) | 105%
2 | C[C@]12O[C@H](C[C@]1(O)CO)n1c3ccccc3c3c4c(c5c6ccccc6n2c5c31)CNC4=O [Lestaurtinib] + C[C@@H]1CCN(C(=O)CC#N)C[C@@H]1N(C)c1ncnc2[nH]ccc12 [CP690550] (first compound 0.004 µM, partner dose 1 µM) | 144%
3 | O=S(=O)(c1ccccc1)N(CC(F)(F)F)c1ccc(C(O)(C(F)(F)F)C(F)(F)F)cc1 + O=C(Oc1ccc([N+](=O)[O-])cc1)N1CCC(C(O)(c2ccc3c(c2)OCO3)c2ccc3c(c2)OCO3)CC1 [JZL184] (first compound 1.4 µM, partner dose 1 µM) | 42.1%
4 | CCN(CC)CCCCNc1ncc2cc(-c3cc(OC)cc(OC)c3)c(NC(=O)NC(C)(C)C)nc2n1 + C/C(O)=C(\C#N)C(=O)Nc1cc(Br)ccc1Br [LFM-A13] (first compound 0.1 µM, partner dose 2 µM) | 95.6%
5 | CC(C)(C)c1cnc(CSc2cnc(NC(=O)C3CCNCC3)s2)o1 + O=C(Oc1ccc([N+](=O)[O-])cc1)N1CCC(C(O)(c2ccc3c(c2)OCO3)c2ccc3c(c2)OCO3)CC1 [JZL184] (first compound 0.01 µM, partner dose 1 µM) | 235%
6 | C[As](C)SC[C@H](NC(=O)CC[C@H](N)C(=O)O)C(=O)NCC(=O)O [Darinaparsin] + O=C(O)C(=O)Nc1sc2c(c1C(=O)O)CCNC2 [TCS401] (first compound 0.4 µM, partner dose 1.66667 µM) | 68.4%
7 | CCN(CC)CCCCNc1ncc2cc(-c3cc(OC)cc(OC)c3)c(NC(=O)NC(C)(C)C)nc2n1 + O=C(Oc1ccc([N+](=O)[O-])cc1)N1CCC(C(O)(c2ccc3c(c2)OCO3)c2ccc3c(c2)OCO3)CC1 [JZL184] (first compound 0.1 µM, partner dose 1 µM) | 51.4%
8 | C[As](C)SC[C@H](NC(=O)CC[C@H](N)C(=O)O)C(=O)NCC(=O)O [Darinaparsin] + Cc1cc(SCc2sc(-c3ccc(C(F)(F)F)c(F)c3)nc2C)ccc1OCC(=O)O [GW0742] (first compound 0.4 µM, partner dose 2 µM) | 46.4%
9 | CCc1ccc(CCOc2ccc(CC3SC(=O)NC3=O)cc2)nc1 (configuration not stated) [pioglitazone] + C/C(O)=C(\C#N)C(=O)Nc1cc(Br)ccc1Br [LFM-A13] (first compound 2 µM, partner dose 2 µM) | 165%
10 | CO[C@@H]1[C@H](N(C)C(=O)c2ccccc2)C[C@H]2O[C@]1(C)n1c3ccccc3c3c4c(c5c6ccccc6n2c5c31)C(=O)NC4 [Midostaurin] + C/C(O)=C(\C#N)C(=O)Nc1cc(Br)ccc1Br [LFM-A13] (first compound 0.08 µM, partner dose 2 µM) | 84.6%
11 | c1cc(-c2cnn3cc(-c4ccc(OCCN5CCCCC5)cc4)cnc23)ccn1 [Dorsomorphin] + O=C(Oc1ccc([N+](=O)[O-])cc1)N1CCC(C(O)(c2ccc3c(c2)OCO3)c2ccc3c(c2)OCO3)CC1 [JZL184] (first compound 0.4 µM, partner dose 1 µM) | 85.6%
12 | Cc1cc(SCc2sc(-c3ccc(C(F)(F)F)c(F)c3)nc2C)ccc1OCC(=O)O + Cn1cc(/C=C2\C(=O)Nc3cccnc32)c2ccccc21 [GW441756] (first compound 2 µM, partner dose 0.4 µM) | 135%
13 | C[C@]12O[C@H](C[C@]1(O)CO)n1c3ccccc3c3c4c(c5c6ccccc6n2c5c31)CNC4=O [Lestaurtinib] + C/C(O)=C(\C#N)C(=O)Nc1cc(Br)ccc1Br [LFM-A13] (first compound 0.004 µM, partner dose 2 µM) | 75.8%
14 | C[As](C)SC[C@H](NC(=O)CC[C@H](N)C(=O)O)C(=O)NCC(=O)O [Darinaparsin] + COc1cc2ncnc(Nc3ccc(Oc4ccccc4)cc3)c2cc1OC [SrcI1] (first compound 0.4 µM, partner dose 2 µM) | 171%
15 | Cn1nnc2c(C(N)=O)ncn2c1=O [temozolomide] + O=C(Oc1ccc([N+](=O)[O-])cc1)N1CCC(C(O)(c2ccc3c(c2)OCO3)c2ccc3c(c2)OCO3)CC1 [JZL184] (first compound 2 µM, partner dose 1 µM) | 116%
16 | C[C@]1(c2nc3c(C(N)=O)cccc3[nH]2)CCCN1 [Veliparib] + O=C(Oc1ccc([N+](=O)[O-])cc1)N1CCC(C(O)(c2ccc3c(c2)OCO3)c2ccc3c(c2)OCO3)CC1 [JZL184] (first compound 1.4 µM, partner dose 1 µM) | 139%

Excerpt, nos. 9–15
Row | Compound | cleaved PARP positive nuclei fraction
9 | CCc1ccc(CCOc2ccc(CC3SC(=O)NC3=O)cc2)nc1 (configuration not stated) [pioglitazone] + C/C(O)=C(\C#N)C(=O)Nc1cc(Br)ccc1Br [LFM-A13] (first compound 2 µM, partner dose 2 µM) | 165%
10 | CO[C@@H]1[C@H](N(C)C(=O)c2ccccc2)C[C@H]2O[C@]1(C)n1c3ccccc3c3c4c(c5c6ccccc6n2c5c31)C(=O)NC4 [Midostaurin] + C/C(O)=C(\C#N)C(=O)Nc1cc(Br)ccc1Br [LFM-A13] (first compound 0.08 µM, partner dose 2 µM) | 84.6%
11 | c1cc(-c2cnn3cc(-c4ccc(OCCN5CCCCC5)cc4)cnc23)ccn1 [Dorsomorphin] + O=C(Oc1ccc([N+](=O)[O-])cc1)N1CCC(C(O)(c2ccc3c(c2)OCO3)c2ccc3c(c2)OCO3)CC1 [JZL184] (first compound 0.4 µM, partner dose 1 µM) | 85.6%
12 | Cc1cc(SCc2sc(-c3ccc(C(F)(F)F)c(F)c3)nc2C)ccc1OCC(=O)O + Cn1cc(/C=C2\C(=O)Nc3cccnc32)c2ccccc21 [GW441756] (first compound 2 µM, partner dose 0.4 µM) | 135%
13 | C[C@]12O[C@H](C[C@]1(O)CO)n1c3ccccc3c3c4c(c5c6ccccc6n2c5c31)CNC4=O [Lestaurtinib] + C/C(O)=C(\C#N)C(=O)Nc1cc(Br)ccc1Br [LFM-A13] (first compound 0.004 µM, partner dose 2 µM) | 75.8%
14 | C[As](C)SC[C@H](NC(=O)CC[C@H](N)C(=O)O)C(=O)NCC(=O)O [Darinaparsin] + COc1cc2ncnc(Nc3ccc(Oc4ccccc4)cc3)c2cc1OC [SrcI1] (first compound 0.4 µM, partner dose 2 µM) | 171%
15 | Cn1nnc2c(C(N)=O)ncn2c1=O [temozolomide] + O=C(Oc1ccc([N+](=O)[O-])cc1)N1CCC(C(O)(c2ccc3c(c2)OCO3)c2ccc3c(c2)OCO3)CC1 [JZL184] (first compound 2 µM, partner dose 1 µM) | 116%

Additional results:

Row | Compound | cleaved PARP positive nuclei fraction
17 | Nc1cccc2c1CN(C1CCC(=O)NC1=O)C2=O (configuration not stated) [lenalidomide] + O=C(Oc1ccc([N+](=O)[O-])cc1)N1CCC(C(O)(c2ccc3c(c2)OCO3)c2ccc3c(c2)OCO3)CC1 [JZL184] (first compound 1 µM, partner dose 1 µM) | 76.2%
18 | C[C@]12O[C@H](C[C@]1(O)CO)n1c3ccccc3c3c4c(c5c6ccccc6n2c5c31)CNC4=O [Lestaurtinib] + COc1ccc(COc2ccc(Cc3cnc(N)nc3N)cc2OC)cc1 [GW2580] (first compound 0.004 µM, partner dose 1 µM) | 214%
19 | Cc1nc(Nc2ncc(C(=O)Nc3c(C)cccc3Cl)s2)cc(N2CCN(CCO)CC2)n1 [dasatanib] + C/C(O)=C(\C#N)C(=O)Nc1cc(Br)ccc1Br [LFM-A13] (first compound 0.004 µM, partner dose 2 µM) | 54.7%
20 | Cc1cc(SCc2sc(-c3ccc(C(F)(F)F)c(F)c3)nc2C)ccc1OCC(=O)O + Cc1cc([N+](=O)[O-])ccc1NS(=O)(=O)c1cc(Cl)ccc1Cl [FH535] (first compound 2 µM, partner dose 1 µM) | 52.4%
21 | O=S(=O)(c1ccccc1)N(CC(F)(F)F)c1ccc(C(O)(C(F)(F)F)C(F)(F)F)cc1 + C/C(O)=C(\C#N)C(=O)Nc1cc(Br)ccc1Br [LFM-A13] (first compound 1.4 µM, partner dose 2 µM) | 121%
22 | O=C(Oc1ccc([N+](=O)[O-])cc1)N1CCC(C(O)(c2ccc3c(c2)OCO3)c2ccc3c(c2)OCO3)CC1 + CCCCCCCCCCCC1=C(O)C(=O)C=C(O)C1=O [Embelin] (first compound 1 µM, partner dose 1.2 µM) | 72.5%
23 | Cn1cncc1[C@@](N)(c1ccc(Cl)cc1)c1ccc2c(c1)c(-c1cccc(Cl)c1)cc(=O)n2C [tipifarnib] + Cc1cc(SCc2sc(-c3ccc(C(F)(F)F)c(F)c3)nc2C)ccc1OCC(=O)O [GW0742] (first compound 0.01 µM, partner dose 2 µM) | 205%
24 | O=C1NC(=O)/C(=C/c2ccc(-c3ccc(F)cc3O)o2)S1 + O=C(Oc1ccc([N+](=O)[O-])cc1)N1CCC(C(O)(c2ccc3c(c2)OCO3)c2ccc3c(c2)OCO3)CC1 [JZL184] (first compound 1 µM, partner dose 1 µM) | 239%
25 | CN(C)S(=O)(=O)c1ccc2c(c1)/C(=C/c1cc3c([nH]1)CCCC3)C(=O)N2 + Cc1cc(SCc2sc(-c3ccc(C(F)(F)F)c(F)c3)nc2C)ccc1OCC(=O)O [GW0742] (first compound 0.4 µM, partner dose 2 µM) | 625%
26 | O=C(Oc1ccc([N+](=O)[O-])cc1)N1CCC(C(O)(c2ccc3c(c2)OCO3)c2ccc3c(c2)OCO3)CC1 + Cn1cc(/C=C2\C(=O)Nc3cccnc32)c2ccccc21 [GW441756] (first compound 1 µM, partner dose 0.4 µM) | 109%
27 | CO[C@H]1C[C@@H]2CC[C@@H](C)[C@@](O)(O2)C(=O)C(=O)N2CCCC[C@H]2C(=O)O[C@H]([C@H](C)C[C@@H]2CC[C@@H](OCCO)[C@H](OC)C2)CC(=O)[C@H](C)/C=C(\C)[C@@H](O)[C@@H](OC)C(=O)[C@H](C)C[C@H](C)/C=C/C=C/C=C/1C [everolimus] + Cc1cc(SCc2sc(-c3ccc(C(F)(F)F)c(F)c3)nc2C)ccc1OCC(=O)O [GW0742] (first compound 0.02 µM, partner dose 2 µM) | 184%
28 | C[C@]12O[C@H](C[C@]1(O)CO)n1c3ccccc3c3c4c(c5c6ccccc6n2c5c31)CNC4=O [Lestaurtinib] + CO[C@@H]1[C@H](N(C)C(=O)c2ccccc2)C[C@H]2O[C@]1(C)n1c3ccccc3c3c4c(c5c6ccccc6n2c5c31)C(=O)NC4 [Midostaurin] (first compound 0.004 µM, partner dose 0.08 µM) | 131%
29 | C[C@]12O[C@H](C[C@]1(O)CO)n1c3ccccc3c3c4c(c5c6ccccc6n2c5c31)CNC4=O [Lestaurtinib] + NC(=O)Nc1cc(-c2cccc(F)c2)sc1C(=O)N[C@H]1CCCNC1 [AZD7762] (first compound 0.004 µM, partner dose 0.02 µM) | 106%
30 | C[C@]12O[C@H](C[C@]1(O)CO)n1c3ccccc3c3c4c(c5c6ccccc6n2c5c31)CNC4=O [Lestaurtinib] + CN(NC(=O)CC(=O)NN(C)C(=S)c1ccccc1)C(=S)c1ccccc1 [STA4783] (first compound 0.004 µM, partner dose 0.006 µM) | 84.3%
31 | N#Cc1c(O)c2c(-c3ccc(-c4ccccc4O)cc3)csc2[nH]c1=O + Cc1cc(SCc2sc(-c3ccc(C(F)(F)F)c(F)c3)nc2C)ccc1OCC(=O)O [GW0742] (first compound 2 µM, partner dose 2 µM) | 41.7%
32 | C[C@]12O[C@H](C[C@]1(O)CO)n1c3ccccc3c3c4c(c5c6ccccc6n2c5c31)CNC4=O [Lestaurtinib] + O=C(O)C(=O)Nc1sc2c(c1C(=O)O)CCNC2 [TCS401] (first compound 0.004 µM, partner dose 1.66667 µM) | 172%
